For four molecules, binding results are on record in article PMC5487319 (Scientific Reports, 2017).

The chains behind the UniProt entries cited, without tags or fusion partners. Where a name states a change or a piece, a line headed by the entry shows the natural chain unless it says otherwise.
UniProt P17948: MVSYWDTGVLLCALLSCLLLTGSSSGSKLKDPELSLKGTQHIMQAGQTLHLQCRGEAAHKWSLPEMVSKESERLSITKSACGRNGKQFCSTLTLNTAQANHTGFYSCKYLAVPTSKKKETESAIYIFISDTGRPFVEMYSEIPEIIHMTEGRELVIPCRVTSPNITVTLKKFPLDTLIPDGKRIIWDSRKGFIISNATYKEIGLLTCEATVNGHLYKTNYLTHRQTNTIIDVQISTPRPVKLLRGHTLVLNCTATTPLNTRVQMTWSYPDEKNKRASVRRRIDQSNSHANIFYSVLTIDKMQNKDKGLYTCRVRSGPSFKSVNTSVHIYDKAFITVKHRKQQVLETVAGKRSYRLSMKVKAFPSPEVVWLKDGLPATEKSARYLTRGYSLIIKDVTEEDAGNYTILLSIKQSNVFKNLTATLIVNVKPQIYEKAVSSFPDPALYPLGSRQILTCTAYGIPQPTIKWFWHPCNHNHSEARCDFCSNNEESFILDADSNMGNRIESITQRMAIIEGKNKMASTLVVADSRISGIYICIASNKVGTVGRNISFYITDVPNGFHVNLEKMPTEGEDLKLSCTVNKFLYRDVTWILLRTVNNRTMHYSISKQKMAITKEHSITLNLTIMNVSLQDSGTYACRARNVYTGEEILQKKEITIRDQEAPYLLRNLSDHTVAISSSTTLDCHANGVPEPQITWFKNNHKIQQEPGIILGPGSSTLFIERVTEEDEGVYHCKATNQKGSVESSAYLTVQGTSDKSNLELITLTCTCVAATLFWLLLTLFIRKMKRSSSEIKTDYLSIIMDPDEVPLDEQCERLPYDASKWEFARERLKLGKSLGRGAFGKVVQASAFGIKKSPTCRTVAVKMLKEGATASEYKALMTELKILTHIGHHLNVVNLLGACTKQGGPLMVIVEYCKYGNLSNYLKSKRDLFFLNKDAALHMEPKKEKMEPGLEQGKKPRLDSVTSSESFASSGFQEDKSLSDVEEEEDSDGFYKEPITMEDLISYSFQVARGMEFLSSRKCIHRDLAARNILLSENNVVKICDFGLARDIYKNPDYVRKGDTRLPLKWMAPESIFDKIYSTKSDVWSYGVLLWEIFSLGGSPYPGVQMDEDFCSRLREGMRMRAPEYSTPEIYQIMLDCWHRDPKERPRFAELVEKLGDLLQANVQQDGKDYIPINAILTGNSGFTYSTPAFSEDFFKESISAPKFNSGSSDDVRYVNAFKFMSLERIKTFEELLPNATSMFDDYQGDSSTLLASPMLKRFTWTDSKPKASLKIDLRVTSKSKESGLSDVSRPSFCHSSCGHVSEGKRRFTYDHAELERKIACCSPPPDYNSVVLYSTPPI

These are yes or no findings as the source states them, for the method shown. A result given as binding can be weak or reduced; the word gives no strength.

In this assay the target is VEGFR-1 (overexpressed from Lenti-VEGFR-1, mutation in the ATP-binding site) (UniProt P17948). Nature of the assay: radioligand binding; saturation binding: gradient concentrations of 188Re-labelled peptide on A549 cells transfected with Lenti-VEGFR-1 or mock vehicle, 2 h; inhibited group with 30 ug non-labelled peptide added 30 min before; washed with ice-cold PBS with 0.1% BSA; gamma counter; only the binder purified.

Turning to RKRKRKKSRYIVLS (ethylene cysteine (EC) conjugated as chelating agent, 188Re-labelled), the binding entry was “binds”.

As for RKRKRKKSRYIVLS, the binding entry is “binds”.

With QKRKRKKSRKKH, the binding entry was “binds”.

For QKRKRKKSRKKH (ethylene cysteine (EC) conjugated as chelating agent, 188Re-labelled), the binding result is reported as “binds”.
